The list shows a part of the results. Small differences around the control level are noise.
The targets below were run with CN[C@@H]1C[C@H]2O[C@@](C)([C@@H]1OC)n1c3ccccc3c3c4c(c5c6ccccc6n2c5c31)C(=O)NC4 [staurosporine] (assay: log2 fold change of tryptic peptide abundance, ligand vs vehicle (limited proteolysis) (log2 ratio); higher = more trypsin-susceptible (destabilized)). Conditions: ligand concentration: 20 uM; sample: K562 cleared lysate; digestion: 4 min, 22 C (HT-PELSA RT4min, Orbitrap Astral).

Chains of the proteins cited; added tags and fusions are not shown. Lines headed by an entry give the natural chain unless they say otherwise; changes in a name come on top.
UniProt Q9Y448: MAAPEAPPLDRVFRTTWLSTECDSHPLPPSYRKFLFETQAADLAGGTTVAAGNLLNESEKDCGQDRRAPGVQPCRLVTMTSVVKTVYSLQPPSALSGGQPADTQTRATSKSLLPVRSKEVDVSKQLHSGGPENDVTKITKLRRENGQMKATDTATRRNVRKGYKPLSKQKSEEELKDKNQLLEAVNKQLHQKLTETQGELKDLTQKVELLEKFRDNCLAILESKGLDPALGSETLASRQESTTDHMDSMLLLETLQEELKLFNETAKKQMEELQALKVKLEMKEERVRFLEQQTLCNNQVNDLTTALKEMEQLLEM
UniProt Q9Y608: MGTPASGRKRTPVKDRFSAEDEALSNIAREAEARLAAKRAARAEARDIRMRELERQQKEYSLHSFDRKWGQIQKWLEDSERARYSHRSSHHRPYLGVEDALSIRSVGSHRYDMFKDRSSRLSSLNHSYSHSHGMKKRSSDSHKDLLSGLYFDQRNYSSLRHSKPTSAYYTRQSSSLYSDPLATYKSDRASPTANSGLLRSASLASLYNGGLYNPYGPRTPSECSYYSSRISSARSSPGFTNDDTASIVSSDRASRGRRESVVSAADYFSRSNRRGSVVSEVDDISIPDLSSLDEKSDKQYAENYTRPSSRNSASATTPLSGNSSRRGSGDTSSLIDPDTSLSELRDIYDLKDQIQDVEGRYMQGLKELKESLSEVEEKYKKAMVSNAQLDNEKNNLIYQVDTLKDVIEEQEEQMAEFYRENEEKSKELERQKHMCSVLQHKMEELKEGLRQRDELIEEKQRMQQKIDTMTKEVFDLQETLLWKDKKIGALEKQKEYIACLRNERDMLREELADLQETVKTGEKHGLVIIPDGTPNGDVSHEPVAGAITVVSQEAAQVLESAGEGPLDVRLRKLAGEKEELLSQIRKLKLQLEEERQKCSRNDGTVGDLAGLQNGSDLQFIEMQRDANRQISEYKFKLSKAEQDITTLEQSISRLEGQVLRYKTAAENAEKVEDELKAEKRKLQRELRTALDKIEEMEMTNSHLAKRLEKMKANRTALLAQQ
UniProt Q9Y3C0: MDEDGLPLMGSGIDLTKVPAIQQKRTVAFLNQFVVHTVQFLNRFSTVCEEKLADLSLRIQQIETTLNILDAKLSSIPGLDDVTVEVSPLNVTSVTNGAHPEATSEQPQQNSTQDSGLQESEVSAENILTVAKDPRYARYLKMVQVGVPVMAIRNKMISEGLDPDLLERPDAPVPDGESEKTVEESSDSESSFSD
UniProt Q9Y3C6: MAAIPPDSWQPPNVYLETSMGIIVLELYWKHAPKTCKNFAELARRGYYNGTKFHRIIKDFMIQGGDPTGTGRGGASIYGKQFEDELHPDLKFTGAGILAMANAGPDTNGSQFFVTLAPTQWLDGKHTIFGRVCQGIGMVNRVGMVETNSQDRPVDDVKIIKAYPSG
UniProt Q9Y576: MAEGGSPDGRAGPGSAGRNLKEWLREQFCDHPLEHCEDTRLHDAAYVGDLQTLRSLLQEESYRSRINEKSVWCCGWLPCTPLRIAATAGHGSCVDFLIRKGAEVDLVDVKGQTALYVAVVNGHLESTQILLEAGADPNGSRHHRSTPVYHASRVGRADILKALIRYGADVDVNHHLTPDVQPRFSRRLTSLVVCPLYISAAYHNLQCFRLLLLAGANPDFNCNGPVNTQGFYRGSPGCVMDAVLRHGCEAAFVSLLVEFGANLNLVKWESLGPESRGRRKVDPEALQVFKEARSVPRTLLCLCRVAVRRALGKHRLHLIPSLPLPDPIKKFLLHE
UniProt Q9Y6I7: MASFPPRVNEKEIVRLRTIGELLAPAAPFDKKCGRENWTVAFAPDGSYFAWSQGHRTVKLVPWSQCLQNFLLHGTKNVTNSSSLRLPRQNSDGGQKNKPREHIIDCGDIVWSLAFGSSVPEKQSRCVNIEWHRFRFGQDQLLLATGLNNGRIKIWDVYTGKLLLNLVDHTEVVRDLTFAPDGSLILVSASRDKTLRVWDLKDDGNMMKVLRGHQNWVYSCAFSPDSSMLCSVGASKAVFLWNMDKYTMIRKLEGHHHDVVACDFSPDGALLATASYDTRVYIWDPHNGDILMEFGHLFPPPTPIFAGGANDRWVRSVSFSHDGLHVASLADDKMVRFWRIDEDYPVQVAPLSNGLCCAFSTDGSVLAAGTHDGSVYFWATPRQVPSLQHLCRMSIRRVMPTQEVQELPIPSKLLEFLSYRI
UniProt Q9Y4L5, whole entry: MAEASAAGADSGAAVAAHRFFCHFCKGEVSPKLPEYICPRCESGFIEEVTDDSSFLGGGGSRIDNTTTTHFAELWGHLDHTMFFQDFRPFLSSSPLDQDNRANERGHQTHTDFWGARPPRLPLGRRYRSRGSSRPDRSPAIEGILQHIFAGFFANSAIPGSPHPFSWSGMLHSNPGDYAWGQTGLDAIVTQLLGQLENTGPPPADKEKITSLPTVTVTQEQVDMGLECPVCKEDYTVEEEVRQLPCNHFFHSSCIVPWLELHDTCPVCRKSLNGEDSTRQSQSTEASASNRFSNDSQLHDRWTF
UniProt Q9Y4R8, whole entry: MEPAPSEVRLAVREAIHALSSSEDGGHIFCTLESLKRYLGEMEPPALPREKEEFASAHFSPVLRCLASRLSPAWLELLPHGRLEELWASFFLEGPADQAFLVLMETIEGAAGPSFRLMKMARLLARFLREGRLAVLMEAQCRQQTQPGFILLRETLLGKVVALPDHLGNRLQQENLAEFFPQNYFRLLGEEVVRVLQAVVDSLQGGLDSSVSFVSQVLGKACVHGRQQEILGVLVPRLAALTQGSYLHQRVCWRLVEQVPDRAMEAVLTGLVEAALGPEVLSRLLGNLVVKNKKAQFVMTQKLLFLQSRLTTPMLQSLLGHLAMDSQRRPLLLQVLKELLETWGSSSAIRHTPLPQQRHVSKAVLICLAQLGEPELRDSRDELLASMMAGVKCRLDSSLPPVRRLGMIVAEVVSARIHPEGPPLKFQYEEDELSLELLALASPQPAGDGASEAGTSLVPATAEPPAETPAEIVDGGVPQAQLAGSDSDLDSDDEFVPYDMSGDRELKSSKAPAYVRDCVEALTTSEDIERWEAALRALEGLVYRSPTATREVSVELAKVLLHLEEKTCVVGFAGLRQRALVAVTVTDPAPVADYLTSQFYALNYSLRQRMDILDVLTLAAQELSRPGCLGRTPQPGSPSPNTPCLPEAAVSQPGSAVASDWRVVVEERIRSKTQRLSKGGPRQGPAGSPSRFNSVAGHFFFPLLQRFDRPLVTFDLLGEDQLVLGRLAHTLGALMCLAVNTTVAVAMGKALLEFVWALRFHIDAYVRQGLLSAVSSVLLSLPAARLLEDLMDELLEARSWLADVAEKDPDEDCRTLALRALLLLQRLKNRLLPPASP
UniProt Q9Y6Y0: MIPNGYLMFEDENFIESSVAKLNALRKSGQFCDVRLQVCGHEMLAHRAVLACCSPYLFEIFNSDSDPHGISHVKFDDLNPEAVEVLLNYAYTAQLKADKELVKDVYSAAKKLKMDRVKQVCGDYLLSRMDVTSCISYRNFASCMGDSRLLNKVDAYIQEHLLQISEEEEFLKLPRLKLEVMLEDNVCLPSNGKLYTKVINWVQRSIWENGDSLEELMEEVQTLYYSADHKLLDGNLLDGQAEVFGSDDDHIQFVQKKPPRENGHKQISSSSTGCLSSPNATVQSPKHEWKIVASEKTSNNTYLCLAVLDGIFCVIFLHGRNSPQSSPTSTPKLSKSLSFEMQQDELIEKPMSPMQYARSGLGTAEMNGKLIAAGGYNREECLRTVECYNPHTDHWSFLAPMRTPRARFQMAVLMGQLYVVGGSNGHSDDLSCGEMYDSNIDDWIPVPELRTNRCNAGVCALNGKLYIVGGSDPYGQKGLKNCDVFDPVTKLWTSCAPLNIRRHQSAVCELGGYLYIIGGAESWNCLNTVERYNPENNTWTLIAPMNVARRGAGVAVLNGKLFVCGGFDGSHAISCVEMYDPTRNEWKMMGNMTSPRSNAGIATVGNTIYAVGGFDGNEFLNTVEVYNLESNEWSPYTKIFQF
UniProt Q9Y6W5, whole entry: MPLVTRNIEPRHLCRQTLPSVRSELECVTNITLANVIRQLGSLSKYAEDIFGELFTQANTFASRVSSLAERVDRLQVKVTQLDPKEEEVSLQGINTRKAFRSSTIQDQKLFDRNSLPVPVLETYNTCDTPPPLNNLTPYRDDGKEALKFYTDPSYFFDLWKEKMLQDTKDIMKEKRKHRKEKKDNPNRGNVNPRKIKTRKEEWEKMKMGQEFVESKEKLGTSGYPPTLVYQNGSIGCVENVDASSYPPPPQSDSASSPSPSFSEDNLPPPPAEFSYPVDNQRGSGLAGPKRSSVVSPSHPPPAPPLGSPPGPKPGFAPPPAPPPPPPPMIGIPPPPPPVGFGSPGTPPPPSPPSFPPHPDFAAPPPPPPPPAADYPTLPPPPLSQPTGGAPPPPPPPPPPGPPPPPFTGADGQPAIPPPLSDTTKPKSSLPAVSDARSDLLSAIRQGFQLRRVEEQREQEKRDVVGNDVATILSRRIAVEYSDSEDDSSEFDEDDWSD
UniProt Q9Y6K8: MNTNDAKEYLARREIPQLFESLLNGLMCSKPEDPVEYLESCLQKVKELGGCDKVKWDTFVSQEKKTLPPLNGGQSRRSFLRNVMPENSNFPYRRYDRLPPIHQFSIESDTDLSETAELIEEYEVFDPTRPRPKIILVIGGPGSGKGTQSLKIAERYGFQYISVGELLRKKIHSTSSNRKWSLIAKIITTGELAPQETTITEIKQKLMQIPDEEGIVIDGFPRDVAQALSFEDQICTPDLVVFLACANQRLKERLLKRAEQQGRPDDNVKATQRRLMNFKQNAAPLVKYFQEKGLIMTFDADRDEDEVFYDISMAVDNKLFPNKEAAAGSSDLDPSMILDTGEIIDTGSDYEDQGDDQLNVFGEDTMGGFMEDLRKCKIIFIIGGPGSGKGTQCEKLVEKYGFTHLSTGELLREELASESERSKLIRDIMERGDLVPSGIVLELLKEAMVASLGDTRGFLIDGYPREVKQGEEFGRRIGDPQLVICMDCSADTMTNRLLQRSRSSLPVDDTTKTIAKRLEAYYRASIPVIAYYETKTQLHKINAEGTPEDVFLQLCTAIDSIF
UniProt Q9Y617: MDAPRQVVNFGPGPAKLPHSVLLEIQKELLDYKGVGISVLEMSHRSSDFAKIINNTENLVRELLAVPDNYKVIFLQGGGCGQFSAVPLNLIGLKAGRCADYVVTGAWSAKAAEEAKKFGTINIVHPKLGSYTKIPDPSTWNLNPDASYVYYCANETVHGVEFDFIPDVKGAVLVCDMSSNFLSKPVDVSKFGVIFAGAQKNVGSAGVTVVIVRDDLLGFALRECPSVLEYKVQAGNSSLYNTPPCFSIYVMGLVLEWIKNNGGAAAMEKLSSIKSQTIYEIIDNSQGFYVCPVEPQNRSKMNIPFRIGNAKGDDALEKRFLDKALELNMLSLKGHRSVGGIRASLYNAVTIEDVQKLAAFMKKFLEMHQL
UniProt Q9Y4W2: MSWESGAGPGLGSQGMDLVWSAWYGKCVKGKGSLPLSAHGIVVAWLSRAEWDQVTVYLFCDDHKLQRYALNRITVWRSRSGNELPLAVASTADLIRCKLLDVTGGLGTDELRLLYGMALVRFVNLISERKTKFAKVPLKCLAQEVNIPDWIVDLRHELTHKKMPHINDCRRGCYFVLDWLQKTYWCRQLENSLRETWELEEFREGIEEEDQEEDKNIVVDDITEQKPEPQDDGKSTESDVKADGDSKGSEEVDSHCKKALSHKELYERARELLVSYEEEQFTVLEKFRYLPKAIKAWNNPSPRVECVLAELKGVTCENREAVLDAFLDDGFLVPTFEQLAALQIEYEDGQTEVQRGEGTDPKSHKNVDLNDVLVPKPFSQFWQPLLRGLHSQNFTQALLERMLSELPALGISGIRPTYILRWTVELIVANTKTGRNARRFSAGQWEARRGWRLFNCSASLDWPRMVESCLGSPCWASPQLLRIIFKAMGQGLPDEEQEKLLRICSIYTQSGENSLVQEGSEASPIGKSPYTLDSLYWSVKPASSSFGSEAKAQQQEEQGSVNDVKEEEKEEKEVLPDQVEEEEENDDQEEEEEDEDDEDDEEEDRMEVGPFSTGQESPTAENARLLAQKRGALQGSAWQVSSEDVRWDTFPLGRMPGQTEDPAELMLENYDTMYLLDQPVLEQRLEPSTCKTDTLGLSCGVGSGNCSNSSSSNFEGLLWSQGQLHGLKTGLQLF
UniProt Q9Y697: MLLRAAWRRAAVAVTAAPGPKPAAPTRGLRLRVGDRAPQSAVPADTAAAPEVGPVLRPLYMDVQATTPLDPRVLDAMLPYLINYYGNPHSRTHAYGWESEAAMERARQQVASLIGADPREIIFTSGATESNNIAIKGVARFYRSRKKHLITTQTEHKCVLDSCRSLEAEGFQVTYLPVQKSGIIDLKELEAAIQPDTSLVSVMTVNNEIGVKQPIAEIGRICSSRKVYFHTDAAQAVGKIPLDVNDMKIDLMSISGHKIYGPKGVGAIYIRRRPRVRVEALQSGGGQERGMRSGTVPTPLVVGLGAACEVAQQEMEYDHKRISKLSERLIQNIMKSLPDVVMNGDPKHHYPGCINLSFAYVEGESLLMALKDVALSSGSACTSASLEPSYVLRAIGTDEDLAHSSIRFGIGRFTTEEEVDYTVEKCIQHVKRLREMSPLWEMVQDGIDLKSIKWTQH

Row | Target | log2 fold change
1 | STRAP (peptide sequence: IYDLNKPEAEPK, peptide start residue: 126) (UniProt Q9Y3F4) | -0.147
2 | ARFGEF2 (peptide sequence: ALMEAVSHAK, peptide start residue: 869) (UniProt Q9Y6D5) | 0.226
3 | HDGFL3 (peptide sequence: DLFPYKEYK, peptide start residue: 61) (UniProt Q9Y3E1) | -0.46
4 | UniProt Q9Y448 (peptide sequence: LTETQGELKDLTQK, peptide start residue: 193) | -0.301
5 | CEP170B (peptide sequence: EPSYFEIPTK, peptide start residue: 237) (UniProt Q9Y4F5) | 0.156
6 | LRRFIP2 (peptide sequence: QYAENYTRPSSR, peptide start residue: 299) (UniProt Q9Y608) | -0.217
7 | UniProt Q9Y3C0 (peptide sequence: FSTVCEEK, peptide start residue: 44) | -0.357
8 | FBXO7 (peptide sequence: TWPLEVPETEPTLGHLR, peptide start residue: 11) (UniProt Q9Y3I1) | 0.394
9 | PPIL1 (peptide sequence: VGMVETNSQDRPVDDVK, peptide start residue: 142) (UniProt Q9Y3C6) | -0.609
10 | UniProt Q9Y4E1 (peptide sequence: DSGTLQSQEAK, peptide start residue: 647) | -0.163
11 | USP3 (peptide sequence: KLLENSTLNSK, peptide start residue: 135) (UniProt Q9Y6I4) | -0.237
12 | AMMECR1 (peptide sequence: AAGCCGVKK, peptide start residue: 2) (UniProt Q9Y4X0) | -0.102
13 | UniProt Q9Y3I0 (peptide sequence: DKIIVNDR, peptide start residue: 284) | 0.199
14 | ASB1 (peptide sequence: IAATAGHGSCVDFLIR, peptide start residue: 84) (UniProt Q9Y576) | -0.324
15 | SAMHD1 (peptide sequence: REDYESLPK, peptide start residue: 470) (UniProt Q9Y3Z3) | 0.39
16 | WSB1 (peptide sequence: TIGELLAPAAPFDKK, peptide start residue: 18) (UniProt Q9Y6I7) | -0.141
17 | CABIN1 (peptide sequence: LPILSSQAGATGK, peptide start residue: 1412) (UniProt Q9Y6J0) | 0.417
18 | MRPS23 (peptide sequence: LGETDEEKLFVETGK, peptide start residue: 109) (UniProt Q9Y3D9) | -0.168
19 | RNF115 (peptide sequence: FSNDSQLHDRWTF, peptide start residue: 292) (UniProt Q9Y4L5) | -0.317

Row | Target | log2 fold change
20 | TELO2 (peptide sequence: FNSVAGHFFFPLLQR, peptide start residue: 692) (UniProt Q9Y4R8) | -0.127
21 | IVNS1ABP (peptide sequence: LQVCGHEMLAHR, peptide start residue: 36) (UniProt Q9Y6Y0) | 0.313
22 | CCDC61 (peptide sequence: ELEAQLGR, peptide start residue: 194) (UniProt Q9Y6R9) | -0.179
23 | MFHAS1 (peptide sequence: STPSQELLR, peptide start residue: 773) (UniProt Q9Y4C4) | -0.084
24 | WASF2 (peptide sequence: DVVGNDVATILSR, peptide start residue: 463) (UniProt Q9Y6W5) | -0.345
25 | TSC22D4 (peptide sequence: PSSPALYFTHDASLVHK, peptide start residue: 262) (UniProt Q9Y3Q8) | -0.424
26 | AK5 (peptide sequence: GFLIDGYPR, peptide start residue: 89) (UniProt Q9Y6K8) | 0.0244
27 | WDR7 (peptide sequence: NVILMAHDGK, peptide start residue: 1475) (UniProt Q9Y4E6) | 0.199
28 | TRAF6 (peptide sequence: GFGYVTFMHLEALR, peptide start residue: 470) (UniProt Q9Y4K3) | 0.199
29 | UniProt Q9Y4D8 (peptide sequence: AILSCGYDLHFER, peptide start residue: 3431) | -0.728
30 | GMEB1 (peptide sequence: AVILETELR, peptide start residue: 539) (UniProt Q9Y692) | -0.0824
31 | UniProt Q9Y520 (peptide sequence: TVNQQTMAAPVVK, peptide start residue: 1121) | 0.404
32 | SNX5 (peptide sequence: LGEGEGSMTKEEFAK, peptide start residue: 109) (UniProt Q9Y5X3) | -0.137
33 | PSAT1 (peptide sequence: ALELNMLSLK, peptide start residue: 324) (UniProt Q9Y617) | -0.396
34 | CAPN7 (peptide sequence: VQALHSAVQSK, peptide start residue: 64) (UniProt Q9Y6W3) | 0.469
35 | LAS1L (peptide sequence: CLAQEVNIPDWIVDLR, peptide start residue: 140) (UniProt Q9Y4W2) | -0.31
36 | UniProt Q9Y4F4 (peptide sequence: KPHATEQK, peptide start residue: 1642) | 0.157
37 | MRPL42 (peptide sequence: VEHLEEGPMIEQLSK, peptide start residue: 100) (UniProt Q9Y6G3) | -0.0123
38 | NFS1 (peptide sequence: VEALQSGGGQER, peptide start residue: 278) (UniProt Q9Y697) | -0.313

A second format for some results above.
CAPN7 (peptide sequence: VQALHSAVQSK, peptide start residue: 64) (UniProt Q9Y6W3)
  log2 fold change: 0.469
UniProt Q9Y4F4 (peptide sequence: KPHATEQK, peptide start residue: 1642)
  log2 fold change: 0.157

— the supplement of paper PMC12819154, “High-throughput peptide-centric local stability assay extends protein–ligand identification to membrane proteins, tissues and bacteria” (Nature Structural & Molecular Biology, 2025)
